No constants are given. Whether binding was seen depends on the method and setting. In cells and extracts the contact can be indirect. These calls come from enrichment with a bait or labelling near it, and not all partners need be listed. For part of these data: Tags and fused reporters may be left off the sequences shown.
Legend:
[1] = biological target: T1, sP8 (cTP8-2xStrep-PAP8) (Arabidopsis thaliana) (UniProt Q9XI19); test: affinity purification with mass spectrometry
T1 sequence: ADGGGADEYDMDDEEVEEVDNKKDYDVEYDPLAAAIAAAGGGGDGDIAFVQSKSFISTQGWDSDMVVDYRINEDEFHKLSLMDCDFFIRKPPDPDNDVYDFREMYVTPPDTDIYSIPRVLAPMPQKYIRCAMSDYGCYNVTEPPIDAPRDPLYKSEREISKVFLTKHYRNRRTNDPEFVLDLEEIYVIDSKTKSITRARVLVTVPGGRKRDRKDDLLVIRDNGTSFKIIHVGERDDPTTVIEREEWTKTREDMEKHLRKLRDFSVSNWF

Chains of the proteins cited; added tags and fusions are not shown. Residues count along the entry.
UniProt P17745, residues 68-476: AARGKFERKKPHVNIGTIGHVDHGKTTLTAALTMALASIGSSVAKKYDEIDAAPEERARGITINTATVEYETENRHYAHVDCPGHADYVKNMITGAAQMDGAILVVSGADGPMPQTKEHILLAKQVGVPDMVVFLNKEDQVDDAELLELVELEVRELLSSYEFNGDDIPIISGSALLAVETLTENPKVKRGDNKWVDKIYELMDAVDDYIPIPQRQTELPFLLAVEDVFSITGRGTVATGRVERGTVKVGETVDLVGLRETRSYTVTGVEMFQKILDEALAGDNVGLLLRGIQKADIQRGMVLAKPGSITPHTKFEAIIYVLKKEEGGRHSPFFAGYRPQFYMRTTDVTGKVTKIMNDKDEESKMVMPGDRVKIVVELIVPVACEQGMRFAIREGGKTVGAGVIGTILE
UniProt Q9LJE4, residues 51-596: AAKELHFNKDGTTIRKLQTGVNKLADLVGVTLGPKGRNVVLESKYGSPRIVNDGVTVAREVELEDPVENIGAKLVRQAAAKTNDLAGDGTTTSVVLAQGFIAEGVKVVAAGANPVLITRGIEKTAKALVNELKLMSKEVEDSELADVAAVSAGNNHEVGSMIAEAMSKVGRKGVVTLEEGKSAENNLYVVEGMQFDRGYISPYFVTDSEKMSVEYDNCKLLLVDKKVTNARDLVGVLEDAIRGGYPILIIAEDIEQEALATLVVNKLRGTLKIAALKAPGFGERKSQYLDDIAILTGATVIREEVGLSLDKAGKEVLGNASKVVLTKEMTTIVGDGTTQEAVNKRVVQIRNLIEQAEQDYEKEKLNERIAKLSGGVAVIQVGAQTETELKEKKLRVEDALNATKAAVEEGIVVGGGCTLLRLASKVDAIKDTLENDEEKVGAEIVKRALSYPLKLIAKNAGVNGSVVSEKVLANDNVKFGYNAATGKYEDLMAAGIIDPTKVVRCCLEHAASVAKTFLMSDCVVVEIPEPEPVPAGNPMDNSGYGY

[2] = biological target: T2, stλP8 (cTP8-2xStrep-HA-TurboID-A10 linker-PAP8) (Arabidopsis thaliana) (UniProt Q9XI19); test: affinity purification with mass spectrometry
T2 sequence: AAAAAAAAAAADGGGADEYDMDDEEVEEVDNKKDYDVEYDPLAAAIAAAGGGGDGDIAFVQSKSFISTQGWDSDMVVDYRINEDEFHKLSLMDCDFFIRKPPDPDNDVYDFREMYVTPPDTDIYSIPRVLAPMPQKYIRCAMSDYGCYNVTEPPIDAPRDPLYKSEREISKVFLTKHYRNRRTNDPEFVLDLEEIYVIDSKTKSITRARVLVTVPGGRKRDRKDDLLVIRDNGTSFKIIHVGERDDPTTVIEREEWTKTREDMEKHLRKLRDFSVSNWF

[3] = biological target: T2, stλP8 (cTP8-2xStrep-HA-TurboID-A10 linker-PAP8) (Arabidopsis thaliana); test: proximity labelling
[4] = biological target: stP8 (cTP8-2xStrep-HA-TurboID-PAP8) (Arabidopsis thaliana) (UniProt Q9XI19); test: affinity purification with mass spectrometry
[5] = biological target: stP8 (cTP8-2xStrep-HA-TurboID-PAP8) (Arabidopsis thaliana) (UniProt Q9XI19); test: proximity labelling

Measured: binding

PAP1 of Arabidopsis thaliana
binds: [1] | [2] | [3]

pTAC18 of Arabidopsis thaliana
binds: [1] | [2] | [3]

AtRABE1B (from UniProt P17745 68-476)
binds: [1] | [2] | [4] | [3] | [5]

CPN60b2 (from UniProt Q9LJE4 51-596)
binds: [1] | [2] | [4] | [3] | [5]

NusG/pTAC13 (Arabidopsis thaliana (endogenous))
binds: [1] | [2] | [3]

B1: PAP10 (thioredoxin-z) of Arabidopsis thaliana (protein, UniProt Q9M7X9 82-183)
chain: AQELQELVKGDRKVPLIVDFYATWCGPCILMAQELEMLAVEYESNAIIVKVDTDDEYEFARDMQVRGLPTLFFISPDPSKDAIRTEGLIPLQMMHDIIDNEM
binds: [1] | [2] | [4] | [3] | [5]

B2: PAP12 of Arabidopsis thaliana (protein, UniProt Q8VZV9 33-161)
chain: CGIQRDDNGRRVWRRRTLTKKDDMLRYKMQRVPFVEEQVRKIREVGKVMTMDIEQLLLREDNRFEFVNSVAAEATEYVDKNRDEYGGSKKAIFHVLSNRVNDLGFDRPEAYVEADPYKPGPGYLLEYYT
binds: [1] | [2] | [4] | [3] | [5]

B3: PAP9 of Arabidopsis thaliana (protein, UniProt Q9LU64 47-305)
chain: GVITAGFELKPPPYPLDALEPHMSRETLDYHWGKHHKTYVENLNKQILGTDLDALSLEEVVLLSYNKGNMLPAFNNAAQAWNHEFFWESIQPGGGGKPTGELLRLIERDFGSFEEFLERFKSAAASNFGSGWTWLAYKANRLDVANAVNPLPKEEDKKLVIVKTPNAVNPLVWDYSPLLTIDTWEHAYYLDFENRRAEYINTFMEKLVSWETVSTRLESAIARAVQREQEGTETEDEENPDDEVPEVYLDSDIDVSEVD
binds: [1] | [2] | [4] | [3] | [5]

B4: PAP11 of Arabidopsis thaliana (protein, UniProt F4I3P9 41-772)
chain: AAGPARRNSYPNPADDDPPEAPEDSMHGVSKFQQIQRQAARARKLEEEDFEKNRNTYLSAIADVEDAAETGRDDEESGGDLFSDIDRAISMKRSEFVKQGLLKPNPPKTASLKKIGEEGNEEEGDVTDDVDELDEEEVVDLDEIDKLTGLTEISDEEDWVDEEGNTRINKKKEFGSDHQFEFDLDDFGESKARIVEPKFKMCLAELLDESKVVPISVYGDLDVEITGIQHDSRGVSAGDLFVCCLGSENFLSEADKRGAVAVVASKEIDIEDTLGCRALVIVEDTNAVLAALASSFYRHPSKNMSVIGVTGTDGKTTTTYLIKSLYEAMGVRTGMFSTVSCYIHGDNKLDTPNATMNPDAVLVQSLMAKMLHNGTESLVMEASPQELALGKCDEVDFDIAVFTNLTRENTDFRGTDEEYRDAEAKLFSRMVDPERHRKVVNIDDPNAAFFVQQGNPNVPVVTFAMENTKADVHPLKFELSLFETQVLVNTPQGILEISSGLLGRHNIYNILAAVAVGIAVGAPLEDIVRGVEEVDAVPGRCELIDEEQAFGVIVDHANTPDGLSRLLDSIRELKPRRIITVIGCEGENERGKRPLMTKIATEKSDVTMLTSDNPRNEDPLDILDDMLSGIGWTMQEYLKHGEHDYYPPLANGHRLFLHDIRRVAVRCAVAMGEEGDMVVVAGKGHEAYQLEGEKKEFYDDREECREALQYVDELHQAGIDTSEFPWRLPESH
binds: [1] | [2] | [4] | [3] | [5]

B5: STIC2 (protein, UniProt O82230 49-182)
chain: VNGLFGGGNKDNNSEDGQSKAGIFGNMQNMYETVKKAQMVVQVEAVRVQKELAAAEFDGYCAGELVKVTLSGNQQPIRTDITEAAMELGSEKLSQLVTEAYKDAHAKSVVAMKERMSDLAQSLGMPPGLSEGMK
binds: [2] | [4] | [3] | [5]

B6: LIN2 (protein, UniProt Q9LR75 49-386)
chain: VSIEKEVPETERPFTFLRDSDDVTPSSSSSSVRARFETMIRAAQDSVCDAIEAIEGGPKFKEDVWSRPGGGGGISRVLQDGNVFEKAGVNVSVVYGVMPPEAYRAAKGSASDQKPGPVPFFAAGVSSVLHPKNPFAPTLHFNYRYFETDAPKDVPGAPRQWWFGGGTDFTPAYIFEEDVKHFHSIQKQACDKFDPSFYPRFKKWCDDYFYIKHRDERRGLGGIFFDDLNDYDQEMLLSFATECANSVVPAYIPIVEKRKDMEFTEQHKAWQQLRRGRYVEFNLVYDRGTTFGLKTGGRIESILVSLPLSARWEYDHKPEEGTEEWKLLDACINPKEWI
binds: [2] | [4] | [3] | [5]

B7: AT-Hook (AT1G48610) (protein, UniProt Q94AD1 1-212)
chain: MAKTALTPPASGSEVPRSGTPGDASGNKPQTDATGVSATDTASQKRGRGRPPKAKSDSSQIGAVSAKASTKPSGRPKRNVAQAVPSTSVAAAVKKRGRAKRSTVTAAVVTTATGEGSRKRGRPKKDDVAAATVPAETVVAPAKRRGRKPTVEVAAQPVRRTRKSTSVAPVAANVGDLKKRTALLQKKVKEAAAKLKQAVTAIDEVQKLADGM
binds: [2] | [4] | [3] | [5]

B8: PAP7 of Arabidopsis thaliana (protein, UniProt Q84JF5 63-483)
chain: ASEESSSSELETADPDFYKIGYVRSVRAYGVEFKEGPDGFGVYASKDIEPRRRARVIMEIPLELMITIRQKHPWMFFPDIVPIGHPIFDIINSTDPEIDWDIRLACLLLFSFDRDDHFWRLYGDFLPAADECSSLLLATEEDLAELQDPDLVSTIRQQQKRILDFWEKNWHSGVPLKIKRLAEDPERFIWAVSMAQTRCISMQTRVGALVQELNMMIPYADMLNHSFEPNCFLHWRPKDRMLEVMSNAGQDIKKGEEMTINYMPGQKNNMLMERYGFSTPVNPWDAIKFSGDSRIHLNSFLSVFNIYGLPEEYYHDSELSRGDTFVDGAVIAAARTLPTWSDIDLPPIPSAERKAVKELQDECRKMLAEYPTTAEQDQKLLDSMSEARTTFATAVKYRMHRKMFIGKIIKALDIYQERLLY
binds: [1] | [2] | [4] | [3] | [5]

B9: CSP41b (protein, UniProt Q9SA52 51-378)
chain: SSEKKILIMGGTRFIGLFLSRILVKEGHQVTLFTRGKSPIAKQLPGESDQDFADFSSKILHLKGDRKDYDFVKSSLSAEGFDVVYDINGREAEEVEPILEALPKLEQYIYCSSAGVYLKSDILPHCEEDAVDPKSRHKGKLETESLLQSKGVNWTSIRPVYIYGPLNYNPVEEWFFHRLKAGRPIPVPNSGIQISQLGHVKDLATAFLNVLGNEKASREIFNISGEKYVTFDGLAKACAKAGGFPEPEIVHYNPKEFDFGKKKAFPFRDQHFFASVEKAKHVLGWKPEFDLVEGLTDSYNLDFGRGTFRKEADFTTDDMILSKKLVLQ
binds: [1]

Reference: paper doi:10.1101/2024.10.25.620210
